The results in this text go back to PubChem BioAssay AID2052 (NMMLSC, 2009).

The structures appear in SMILES notation. Some of the results follow. Some structures show a salt or complex split into parts, the way the source records it.

The nature of the assay: modulators of CD8 T cell-vesicle binding, primary screen, mouse 2C CD8+ T cells, flow cytometry (AID 2052).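 Note: binding gate set so that unloaded-vesicle control wells show 10% double positive cells.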 Conditions: 2C CD8+ T cell-vesicle binding, measured here: CD8+ vesicle-bound cell fraction, at 7 µM, stronger effect = lower value. Put shortly:
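Read-out – percent CD8+ FL2 mean versus row control · System – murine 2C transgenic CD8+ T lymphocytes · Times – 1.5 h cell–vesicle binding at 37 °C, then 20 min icy labelling · Control set – naked vesicles low, QL9 vesicles with vehicle high · Detection – cytometric PE anti-B7-1 and Alexa647 anti-CD8 signals after 1% paraformaldehyde fixation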
The molecule `CN(C)C(=O)OCCc1n(C)cc[n+]1C` yielded a double positive events of 38.3%.

In the case of `CC(C)=N/N=C(\N)N[N+](=O)[O-]`, the double positive events stood at 49.1%.

Molecule `CN(C)C(=O)c1c([N+](=O)[O-])cc([N+](=O)[O-])cc1[N+](=O)[O-]` showed a double positive events of 12.7%.

With `CC1CCN(C(=O)Oc2c(Cl)cc(Cl)c3cccnc23)CC1`, the double positive events stood at 60.1%.

The molecule `C[N+]1=C2C=CC=CC=C2SC12C([N+](=O)[O-])=CC([N+](=O)[O-])=C[C-]2[N+](=O)[O-]` (stereo not drawn) came in with a double positive events of 8.3%.

For the molecule `COc1ccccc1OP(C)(=O)Nc1ccccc1Br` (stereo not drawn), the double positive events stood at 44.6%.

The molecule `Nc1ccc([As](=O)(O)c2ccc(N)cc2)cc1` yielded a double positive events of 11.5%.

`CC(C)(C)c1ccc(OP(C)(=O)O)cc1` returned a double positive events of 27.4%.

As for `CP(=O)(Nc1ccc(Cl)cc1)Oc1ccc(F)cc1` (stereo not drawn), the double positive events was found to be 22.2%.

For the molecule `CCN(/C(=N/P(=O)(N1CCOCC1)N1CCOCC1)N1CCOCC1)c1ccc(OC)cc1`, the double positive events was found to be 54.8%.

Turning to `O=C(OCCCN1CCCC1)C(O)(c1ccccc1)C1CCCCC1` (stereo not drawn), the double positive events was determined as 12.9%.

For `CC(=O)N1C2C3N(C(C)=O)C1C1N(C(C)=O)C(C(N1C(C)=O)N3C(C)=O)N2C(C)=O`, the double positive events came out at 39.7%.

`O=[N+]([O-])c1cccc2n[nH]nc12`: the double positive events was 50.3%.

The molecule `COc1ccccc1OP(C)(=O)Nc1c(C)n(C)n(-c2ccccc2)c1=O` (stereo not drawn) came in with a double positive events of 23.3%.

As for `CCc1ccc(OP(C)(=O)Nc2cccnc2)cc1` (stereo not drawn), the double positive events amounted to 26.8%.

Take `O=[N+]([O-])c1cc([N+](=O)[O-])c(CCNc2ccccc2)c([N+](=O)[O-])c1`: the double positive events was found to be 33.8%.

As to `CCc1nc2c(n1)c1c(non1O)c1c2no[n+]1[O-]`, the double positive events was determined as 37.7%.

In turn, `CP(=O)(Oc1ccccc1)N1CCOC1=O` (stereo not drawn) gave a double positive events of 49.6%.

The molecule `Cc1ccc(NP(=O)(Oc2ccccc2)Oc2ccccc2)nc1` displayed a double positive events of 23.5%.

Regarding `COc1ccc(OP(C)(=O)Nc2ccc(Br)cc2)cc1` (stereo not drawn), the double positive events is 48%.

`COc1ccc(C2=NCC(CBr)S2)cc1` (stereo not drawn) displayed a double positive events of 50.9%.

For `CCN(CC)CC(O)COC(=O)C(O)(c1ccccc1)C1CCCCC1` (stereo not drawn), the double positive events amounted to 30.8%.

For the molecule `O=[N+]([O-])c1cccc(NC2=NCC(CBr)S2)c1` (stereo not drawn), the double positive events is 27.8%.

Molecule `O=C(O)CNc1ccc([As](=O)(O)O)cc1` yielded a double positive events of 22.6%.

For `CC(C)(C)C(=O)NC(Sc1ccncn1)C(Cl)(Cl)Cl` (stereo not drawn), the double positive events came out at 34.1%.

On to `O=[N+]([O-])c1ncn(CCn2ncnc2[N+](=O)[O-])n1`, for which the double positive events stood at 39%.

`O=C(Nc1cc([As](=O)(O)O)ccc1O)c1ccccc1` returned a double positive events of 57.7%.

As for `CCOC(=O)c1ccc(NP(C)(=O)Oc2ccc(Cl)cc2)cc1` (stereo not drawn), the double positive events was 51.9%.

`CP(=O)(OC12CC3CC(CC(C3)C1)C2)OC12CC3CC(CC(C3)C1)C2` registered a double positive events of 22.8%.

On to `Nc1ccc2c(ccc3cccnc32)n1.O=[N+]([O-])c1cc([N+](=O)[O-])c(O)c([N+](=O)[O-])c1`, for which the double positive events is 56.5%.

`CCN(N=Nc1nonc1N)c1nonc1N`: the double positive events was determined as 53.3%.

On to `CP(=O)(Nc1ccc(Cl)cc1Cl)Oc1ccccc1` (stereo not drawn), for which the double positive events is 36.5%.

Take `CP(=O)(OCCOc1ccccc1)OCCOc1ccccc1`: the double positive events was 31.9%.

`Nc1cccc2ccc([As](=O)(O)O)cc12` gave a double positive events of 14.6%.

`Cc1nc2ccc3ccccc3c2o1.O=[N+]([O-])c1cc([N+](=O)[O-])c(O)c([N+](=O)[O-])c1`: the double positive events was found to be 55.2%.

Molecule `O=[N+]([O-])c1cc([N+](=O)[O-])c(CCN2CCOCC2)c([N+](=O)[O-])c1` showed a double positive events of 27%.

In turn, `COc1ccccc1OP(C)(=O)Nc1ccc(C)c(C)c1` (stereo not drawn) registered a double positive events of 36.2%.

`CN(C(=O)Cc1ccc(Cl)c(Cl)c1)[C@H]1CCCC[C@@H]1N1CCCC1` gave a double positive events of 40.4%.

With `Cc1ccc(NP(=O)(Oc2ccccc2F)Oc2ccccc2F)nc1`, the double positive events is 54.9%.

Molecule `Cc1cc(SC(NC(=O)c2ccc(F)cc2)C(Cl)(Cl)Cl)ncn1` (stereo not drawn) yielded a double positive events of 34.9%.

`CCOP(=O)(Nc1ccccc1)OCC` returned a double positive events of 56.8%.

`COc1ccc(OP(C)(=O)Nc2ccccc2Br)cc1` (stereo not drawn) showed a double positive events of 4.1%.

In turn, `CC(=O)Nc1ccc([As](=O)(O)O)cc1` registered a double positive events of 26.8%.

Molecule `O=C(O)c1ccccc1[As](=O)(O)O` showed a double positive events of 21.7%.

In turn, `O=P(Nc1nc2ccc(Cl)cc2s1)(c1ccccc1)c1ccccc1` had a double positive events of 27.5%.

With `Cc1cc(C)cc(OP(C)(=O)Nc2cccc(C(F)(F)F)c2)c1` (stereo not drawn), the double positive events stood at 47.6%.

On to `COc1ccccc1OP(C)(=O)Nc1ccc(C)cc1C` (stereo not drawn), for which the double positive events is 9.8%.

In turn, `CP(=O)(Nc1ccccn1)Oc1ccccc1` (stereo not drawn) displayed a double positive events of 41.3%.

Turning to `CCc1ccc(OP(C)(=O)O)cc1`, the double positive events turned out to be 32.6%.

The molecule `Nc1cc(N)c2nonc2c1[N+](=O)[O-]` registered a double positive events of 57.5%.

The molecule `Cc1c(NP(C)(=O)Oc2ccc(C(C)C)cc2)c(=O)n(-c2ccccc2)n1C` (stereo not drawn) had a double positive events of 42.7%.

In turn, `O=[N+]([O-])c1cc([N+](=O)[O-])c(Nc2ccccn2)c([N+](=O)[O-])c1` displayed a double positive events of 15.8%.

`CC(C)CC(=O)NC(Sc1ccc(Cl)cc1)C(Cl)(Cl)Cl` (stereo not drawn) gave a double positive events of 18.7%.

Consider `O=C(NC(Sc1ccncn1)C(Cl)(Cl)Cl)c1ccccc1` (stereo not drawn), for which the double positive events came to 5.3%.

The molecule `Cc1c2non([O-])c-2c(C)[n+](=O)[n+]1[O-]` had a double positive events of 49.4%.

The molecule `Oc1ccccc1CNc1ccccn1` showed a double positive events of 14.7%.

`Cc1ccc(OP(=O)(Nc2nccs2)Oc2ccc(C)cc2)cc1` displayed a double positive events of 38.6%.

`COc1ccccc1OP(=O)(Nc1ccc(C)cn1)Oc1ccccc1OC`: the double positive events amounted to 40%.

For the molecule `COc1ccc(OP(C)(=O)Nc2ccccn2)cc1` (stereo not drawn), the double positive events was 13.3%.

The molecule `CN1CCCC(OC(=O)C(c2ccccc2)c2ccccc2)C1` (stereo not drawn) registered a double positive events of 45.4%.

The molecule `CN(C)CCOC(=O)C(O)(c1ccccc1)C1CCCC1` (stereo not drawn) registered a double positive events of 29.2%.

`Clc1ccc(Cl)c(NC2=NCC(CBr)S2)c1` (stereo not drawn) gave a double positive events of 44.1%.

On to `NC(=O)c1cc([N+](=O)[O-])cc([N+](=O)[O-])c1N`, for which the double positive events is 6.8%.

Molecule `Cc1ccc(N/C(=N/P(=O)(N2CCOCC2)N2CCOCC2)N2CCOCC2)cc1` showed a double positive events of 23.7%.

`CN(C(=O)Cc1ccc(Cl)c(Cl)c1)[C@H]1CCCC[C@H]1N1CCCC1` gave a double positive events of 23.5%.

As to `COc1ccccc1OP(C)(=O)Nc1ccc(Br)cc1` (stereo not drawn), the double positive events amounted to 40.7%.

With `CC(=O)Nc1ccc(Oc2c([N+](=O)[O-])cc([N+](=O)[O-])cc2[N+](=O)[O-])cc1`, the double positive events was determined as 16%.

`CC(=O)Nc1ccc([As](=O)(O)O)c(O)c1` gave a double positive events of 19.5%.

The molecule `COc1ccc2c(c1O)-c1c(O)c(OC)cc3c1[C@H](C2)[N+](C)(C)CC3.O=[N+]([O-])c1cc([N+](=O)[O-])c([O-])c([N+](=O)[O-])c1[O-]` displayed a double positive events of 49%.

In turn, `O=C(OC1CN2CCC1CC2)c1ccc([N+](=O)[O-])cc1` (stereo not drawn) gave a double positive events of 33.9%.

In turn, `CC(=O)c1ccc(N2CC2c2ccncc2)cc1` (stereo not drawn) showed a double positive events of 31.1%.

`C[C@H]1OP(=O)(Oc2ccccc2)C[C@@H]2O[C@@H]21` (stereo partly drawn) came in with a double positive events of 21%.

`C[C@@H]1C=CCP(=O)(Oc2ccccc2)O1` (stereo partly drawn) had a double positive events of 60.5%.
